The other results are listed elsewhere or left out. The main result of the screen is listed elsewhere. These columns were measured beside it and carry no call. Most of these compounds were active or inconclusive in the main read-out, so they are no random draw. Words in brackets tell the shape of the fitted curve; partial curves, single points and poor fits give uncertain potencies.
Test: qHTS Assay for Lipid Storage Modulators in Drosophila S3 Cells;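 on cell number change: cells counted by Cell Tracker Red CMTPX staining in the red channel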
Conditions: BODIPY lipid droplet fluorescence, 18-24 h; for cell number change: measured here: cell count max response, cells fed with added oleic acid
How it was run: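 Drosophila S3 cells got compounds at several concentrations plus oleic acid (400 uM solution). Laser-scanning cytometry with 488 nm excitation read lipid droplets at 500-530 nm and cells at 575-640 nm. Percent activity was relative to 20 uM Triacsin C.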

[1] = measured here: lipid fluorescence (Fed channel) AC50, cells fed with added oleic acid
[2] = measured here: cell number channel AC50, cells fed with added oleic acid

| Structure (SMILES) | cell number change [%] | AC50 [1] | AC50 [2] |
| --- | --- | --- | --- |
| CCOc1ccc(NC(=O)c2ccc(NC(=O)COC(=O)c3ccc(NC(=O)CC#N)cc3)cc2)cc1 | -24.1 | 5.8 µM [falling, full curve] | – |
| O=C(Nc1cccc(C(=O)N2CCCC2)c1)c1ccccc1 | 72.2 | – | 29.1 µM [rising, single point] |
| Cc1cc(C)cc(OCC(=O)Nc2ccncc2)c1 | 6.2 | 29.1 µM [falling, single point] | – |
| Cc1ccc(CNC(=O)CCCn2c(=O)[nH]c3ccccc3c2=O)cc1 | 1.17 | 3.26 µM [falling, full curve] | – |
| CC1Cc2ccccc2N1C(=O)C(C)n1cc(C(F)(F)F)cc(Cl)c1=O (stereo not given) | -6.46 | 0.184 µM [rising, full curve, poor fit] | – |
| C/C(=N\N=C(N)N)c1ccc(C)c(C)c1 | 23.5 | 5.8 µM [rising, full curve, poor fit] | 4.11 µM [rising, full curve, poor fit] |
| CC1=C(C(=O)OC(C)C)C(c2cccs2)NC(=O)N1 (stereo not given) | -5.58 | – | 0.58 µM [falling, single point] |
| CC(=O)Oc1ccc2ccccc2c1C(NC(=O)Cc1ccccc1)c1ccc(Cl)cc1 (stereo not given) | -13.9 | 6.51 µM [rising, single point] | – |
| COCCN1CCN(Cc2nc(C3(c4ccc(C)cc4)CCCC3)no2)CC1 | 43.1 | – | 16.4 µM [rising, partial curve, poor fit] |
| CC1=NNC(=O)C1CCC(=O)N/N=C(/C)c1ccc([N+](=O)[O-])cc1 (stereo not given) | -3 | 3.26 µM [falling, full curve, poor fit] | – |
| CCCCCOc1ccc(C(=O)Nc2ccc(S(=O)(=O)Nc3cc(C)on3)cc2)cc1 | 784 | – | 20.6 µM [rising, partial curve] |
| Cn1nc([N+](=O)[O-])nc1Oc1ccccc1F | 126 | 23.1 µM [rising, partial curve] | 23.1 µM [rising, partial curve] |
| CCCn1c(C(O)c2ccc(OC)c(OC)c2)nc2ccccc21 (stereo not given) | -17.2 | 14.6 µM [falling, partial curve] | – |
| COc1ccc(C2C=C(c3ccccc3)Nc3ncnn32)cc1 (stereo not given) | – | 0.58 µM [rising, single point] | – |
| Cc1csc(NC(=O)CSc2nncc(=O)n2N)n1 | 19 | – | – |
| Cc1cc(C)c(C)c(S(=O)(=O)ON2C(=O)c3ccccc3C2=O)c1C | -37.3 | 8.2 µM [falling, partial curve] | 23.1 µM [falling, single point] |
| Cc1cc(Cl)cc2sc(NC(=O)C3CC3)nc12 | 4.61 | 0.116 µM [rising, full curve, poor fit] | – |
| Cc1c(C)c2c(OCC(=O)Nc3cccnc3)cc3c(c2oc1=O)CCC(C)(C)O3 | 35.6 | 29.1 µM [rising, single point] | 18.4 µM [rising, partial curve, poor fit] |
| CCOc1ccc(Oc2ccc(C(F)(F)F)cc2NC(=O)C2=COCCO2)cc1 | -36.9 | 16.4 µM [falling, single point] | 16.4 µM [falling, single point] |

Exported as labelled records: 4 of the compounds above
CC1Cc2ccccc2N1C(=O)C(C)n1cc(C(F)(F)F)cc(Cl)c1=O (stereo not given)
  cell number change [%]: -6.46; AC50 [1]: 0.184 µM [rising, full curve, poor fit]
C/C(=N\N=C(N)N)c1ccc(C)c(C)c1
  cell number change [%]: 23.5; AC50 [1]: 5.8 µM [rising, full curve, poor fit]; AC50 [2]: 4.11 µM [rising, full curve, poor fit]
CCCn1c(C(O)c2ccc(OC)c(OC)c2)nc2ccccc21 (stereo not given)
  cell number change [%]: -17.2; AC50 [1]: 14.6 µM [falling, partial curve]
COc1ccc(C2C=C(c3ccccc3)Nc3ncnn32)cc1 (stereo not given)
  AC50 [1]: 0.58 µM [rising, single point]

Next part.

| Structure (SMILES) | cell number change [%] | AC50 [1] | AC50 [2] |
| --- | --- | --- | --- |
| COc1cc(/C=C/C(=O)Nc2ccc(N3CCCCC3)c(S(=O)(=O)Nc3ccccc3Cl)c2)cc(OC)c1OC | 0.594 | 6.51 µM [falling, single point] | – |
| Cc1ccc(N2CCN(/N=C/c3ccccc3[N+](=O)[O-])CC2)cc1 | -9.41 | 29.1 µM [falling, single point] | – |
| Cc1cc(N2CCOCC2)nc2ccc(NC(=S)N3CCN(c4ccccc4)CC3)cc12 | -54.7 | 32.6 µM [falling, single point] | 25.9 µM [falling, single point] |
| Cc1ccccc1C(=O)NNc1ccc(-c2csnn2)cc1 | -31.9 | 32.6 µM [falling, single point] | – |
| O=S(=O)(NC1C2CC3CC(C2)CC1C3)c1ccccc1 (stereo not given) | -14.4 | – | – |
| CCc1cc2c(NC(C(=O)O)C(C)C)ncnc2s1 (stereo not given) | -14.1 | 32.6 µM [falling, single point] | – |
| CC(c1ccco1)N(C(=O)c1ccccc1NS(=O)(=O)c1ccc(Cl)cc1)c1ccccn1 (stereo not given) | 5.26 | 5.8 µM [rising, single point] | – |
| CC(C)C(OC(=O)Cn1nnc2ccccc21)C(=O)NC1CCCC1 (stereo not given) | 9.46 | – | – |
| C/C(=N\NC(=O)c1ccco1)c1cc(Cl)sc1Cl | 24.6 | – | – |
| CCS(=O)(=O)Nc1ccc(Cc2ccc(NS(=O)(=O)CC)cc2)cc1 | 84.1 | 16.4 µM [rising, partial curve] | 20.6 µM [rising, single point] |
| Cc1cc(C)nc(NC(=O)NC(=O)c2ccccc2)n1 | -4.4 | – | – |
| COc1cc2c(cc1OC)C(c1cccc(F)c1)CC(=O)N2 (stereo not given) | -0.351 | 6.51 µM [rising, partial curve] | – |
| CCOc1ccc(-n2c(SCc3ccc(C(=O)OC)o3)nc3c(c2=O)SCC3)cc1 | 4.86 | 7.31 µM [rising, partial curve] | – |
| Cc1ccc(-n2nc3c(c2NC(=O)c2ccccc2Br)CS(=O)C3)cc1 (stereo not given) | 44.9 | 6.51 µM [rising, full curve] | 6.51 µM [rising, partial curve, poor fit] |
| O=c1[nH]c2ccc(Cl)cc2c(-c2ccccc2)c1N1CCOCC1 | -69.1 | 29.1 µM [falling, single point] | 18.4 µM [falling, single point] |
| COC(=O)c1ccc(NC(C)C(=O)OC)c([N+](=O)[O-])c1 (stereo not given) | 28.6 | 29.1 µM [rising, partial curve] | – |
| O=C(NC(N1CCCCCC1)C(Cl)(Cl)Cl)c1ccccc1Cl (stereo not given) | -59.3 | 4.11 µM [falling, partial curve] | 20.6 µM [falling, partial curve] |
| Cc1ccccc1NC(=O)COC(=O)c1ccccc1SCC(=O)N1CCCC1 | -15 | 18.4 µM [falling, single point] | – |
| COc1cc(Cl)c(C)cc1NC(=O)Cc1cccs1 | -17.7 | 0.82 µM [falling, full curve] | – |

| Structure (SMILES) | cell number change [%] | AC50 [1] | AC50 [2] |
| --- | --- | --- | --- |
| CC(=O)c1ccc(NC(=O)C2C3C=CC(O3)C2C(=O)O)cc1 (stereo not given) | 8.33 | 29.1 µM [falling, single point] | – |
| CC(C)CNC(=O)c1cnn2c(C(F)(F)F)cc(C(F)(F)F)nc12 | 2.25 | 3.26 µM [rising, single point] | – |
| COc1ccc(NC(=O)CN2C(=O)NC(C)(C3CCCCC3)C2=O)c(OC)c1 (stereo not given) | 6.52 | 29.1 µM [falling, single point] | – |
| COC(=O)C1C(=O)c2c([nH]c(C(=O)OC3CCCC3)c2C)CC1C (stereo not given) | -32 | 29.1 µM [rising, single point] | – |
| CCc1nnc(NC(=O)c2ccc(Cl)c(S(=O)(=O)N3CCc4ccccc43)c2)s1 | 14.5 | 6.51 µM [rising, single point] | 4.11 µM [rising, single point] |
| O=C(COC(=O)[C@@H]1CC(O)CN1S(=O)(=O)c1ccc2c(c1)OCCO2)NCc1ccc(F)cc1 (stereo not given in full) | 45.9 | 6.51 µM [rising, partial curve] | 6.51 µM [rising, full curve, poor fit] |
| O=C(OCC(=O)c1cccs1)c1ccccc1 | -19.4 | – | – |
| COc1ccc(N2C(=O)/C(=C\c3ccco3)N=C2SCC(=O)NC(C)(C)C)cc1Cl | -13.2 | 0.184 µM [falling, full curve, poor fit] | – |
| Nc1nc(N)c(N=Nc2ccc(Cl)cc2)c(=O)[nH]1 | 41.7 | 0.92 µM [rising, full curve] | 3.66 µM [rising, full curve] |
| COc1cccc(CC(NC(C)=O)C(=O)NC2CCN(S(=O)(=O)c3ccc(NC(C)=O)cc3)CC2)c1 (stereo not given) | 2.41 | 0.103 µM [falling, full curve, poor fit] | – |
| Fc1ccccc1COc1ccc2ccccc2c1CNc1nn[nH]n1 | 57.2 | – | 3.66 µM [rising, full curve] |
| Cc1cc(Cn2nc(-c3ccccc3)cc2C(=O)NCc2cccc(C(F)(F)F)c2)on1 | -15.5 | 29.1 µM [falling, single point] | – |
| COc1ccccc1NC(=O)C(CC=C(Cl)Cl)C(C)=O (stereo not given) | -13.2 | 5.17 µM [falling, partial curve] | – |
| Cc1cc(NC(=O)CSc2nnc(-c3ccco3)n2CC2CCCO2)no1 (stereo not given) | -0.856 | 0.651 µM [rising, partial curve] | – |
| O=C(NCc1cccc(Cl)c1)C1CCCN(c2ncnc3c2nc2n3CCCCC2)C1 (stereo not given) | 3.44 | 6.51 µM [rising, single point] | – |
| Cc1cc(C(=O)Nc2nc(-c3ccccn3)cs2)ccc1[N+](=O)[O-] | -10.3 | 2.91 µM [rising, partial curve] | 3.26 µM [rising, partial curve, poor fit] |
| Cc1ccsc1C1C=C(c2cccc(Br)c2)Nc2ncnn21 (stereo not given) | -34.4 | – | 0.731 µM [falling, full curve, poor fit] |
| CCCCn1c(NC(=O)c2ccco2)c(S(=O)(=O)c2ccc(C)cc2)c2nc3ccccc3nc21 | 32.1 | – | 8.2 µM [rising, partial curve] |
| CCCCn1c(N)c(N(CC(C)C)C(=O)CSc2n[nH]c(-c3ccc(C)cc3)n2)c(=O)[nH]c1=O | -16.5 | – | – |
